According to PubChem BioAssay AID540256 (National Center for Advancing Translational Sciences (NCATS), 2011):
Among all 300,000 compounds or so, about 3,700 (1.2%) were called active. The shares of active, inactive and inconclusive entries below differ from those in the screen. The call rests on the fitted dose curve; tested in HEK293 cells. Potencies beside an inconclusive call are fits to weak or partial responses and may not hold up.

Experiment: qHTS for Inhibitors of binding or entry into cells for Lassa Virus; further: nearly all actives have a fitted effect of over 50% in size
Conditions: Lassa virus pseudotype entry inhibition, cell reporter; activity change, negative = inhibition: at 37.9 µM (top of the series) unless noted
On the % scale 0 is the no-effect control and ±100 the full control effect; potency means the concentration at half of the fitted maximal effect.

| Compound | Potency | activity change, negative = inhibition |
| --- | --- | --- |
| O=c1[nH]c(CSc2nnc(-c3ccccc3)n2C2CCCCC2)nc2ccccc12 | inconclusive: 4.61 µM [inhibitor, partial curve] | – |
| Cn1cc(CNCc2cnc3ccccn23)c(-c2ccc(Oc3ccccc3)cc2)n1 | inconclusive: 12.6 µM [inhibitor, partial curve, poor fit] | – |
| Cc1ccccc1OCCC(=O)N(Cc1ccccc1)c1c(N)n(Cc2ccccc2)c(=O)[nH]c1=O | active: 11.2 µM | – |
| CN(C)S(=O)(=O)c1cc(NC(=O)CN2CCN(c3ccc(O)cc3)CC2)ccc1Cl | inconclusive: 3.16 µM [inhibitor, partial curve, poor fit] | – |
| CC(=O)N1CCc2cc(S(=O)(=O)NCCC(=O)NC3CCCc4ccccc43)ccc21 (centres undefined) | – | inactive: -6.3% |
| N#CC1=C(c2ccccc2)/C(=C/c2ccccc2)OC1=O | – | inactive: -25.3% |
| O=S(=O)(c1ccc(Cl)cc1)c1snnc1-c1ccccc1 | inconclusive: 35.5 µM [inhibitor, single point] | – |
| Cc1ccc(-n2c3nc(=O)[nH]c(=O)c-3cc3c(C)nn(-c4ccccc4)c32)cc1Cl | inconclusive: 35.5 µM [inhibitor, single point] | – |
| Cc1ccc2c(c1)-c1onc(C(=O)N3CCN(c4ccc(Cl)cc4)CC3)c1CO2 | inconclusive: 10 µM [inhibitor, partial curve, poor fit] | – |
| Cc1cc(=O)[nH]c(SCc2ccc(Cl)cc2)n1 | – | inactive: -0.267% |
| Cc1ccc(S(=O)(=O)/N=C(\CSC(N)=O)Nc2ccccc2)cc1 | – | inactive: 3.6% |
| C=CCNC(=S)N/N=C/c1ccc(-c2ccc(Cl)cc2Cl)o1 | inconclusive: 7.94 µM [inhibitor, partial curve, poor fit] | – |
| CC(C(=O)NCc1ccc(Cl)cc1)n1ccc2cc(S(=O)(=O)N3CCCCCC3)ccc21 (centres undefined) | inconclusive: 12.6 µM [inhibitor, partial curve] | – |
| COc1ccc(-c2nnc(SCc3nnc(-c4ccccc4)o3)n2-c2ccccc2)cc1 | inconclusive: 14.6 µM [inhibitor, partial curve, poor fit] | – |
| O=C1CN(C(=O)COC(=O)/C=C/c2ccc(OC(F)F)cc2)c2ccccc2N1 | inconclusive: 0.0891 µM [inhibitor, full curve, poor fit] | – |
| Cc1ccc(SCCC(=O)NC(C)C)cc1 | – | inactive: -5.83% |
| CC(c1ccco1)N(C(=O)c1cccs1)c1ccccn1 (centres undefined) | inconclusive: 10.3 µM [activator, partial curve, poor fit] | – |
| O=C(Nc1nc(-c2cccnc2)cs1)c1ccc([N+](=O)[O-])cc1 | – | inactive: 1.56% |
| Cc1nnsc1NC(=O)OCc1ccc(C(C)(C)C)cc1 | inconclusive: 11.2 µM [inhibitor, single point] | – |

Looked up above:
Under activity change, negative = inhibition, Cc1ccc(S(=O)(=O)/N=C(\CSC(N)=O)Nc2ccccc2)cc1 has the entry inactive: 3.6%
Under Potency, C=CCNC(=S)N/N=C/c1ccc(-c2ccc(Cl)cc2Cl)o1 has the entry inconclusive: 7.94 µM [inhibitor, partial curve, poor fit]
